The other results are listed elsewhere or left out.
Compound: C[C@H](Nc1ncnc2nc[nH]c12)c1cc2cccc(Cl)c2c(=O)n1-c1ccccc1 [duvelisib]
Experiment: log2 fold change, soluble protein after heating vs DMSO (PISA); higher = thermal stabilisation; K562 lysate, 10 uM; active = over 0.2 and 3.5 SD of the protein, either way, in both replicates (recomputed)
Summary of the method: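 Dounce homogenisation of K562 pellets in PBS pH 7.4 with 1 mM MgCl2 produced a crude extract, used at 1 mg/mL protein. Exposure to 10 μM compound lasted 30 min, and aliquots were then heated for 3 min across 48°C-58°C, pooled and brought to 0.5% NP-40 at 4°C. The supernatant after 21,000xg for 90 min was quantified by TMTpro 16plex LC-MS/MS with channel sums equalised. Duplicate values are given as log-two fold change in thermal stability relative to solvent controls.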

By UniProt entry, the sequences of proteins in these tests, tags left out. Where a name states a change or a piece, a line headed by the entry shows the natural chain unless it says otherwise.
UniProt Q96HY6: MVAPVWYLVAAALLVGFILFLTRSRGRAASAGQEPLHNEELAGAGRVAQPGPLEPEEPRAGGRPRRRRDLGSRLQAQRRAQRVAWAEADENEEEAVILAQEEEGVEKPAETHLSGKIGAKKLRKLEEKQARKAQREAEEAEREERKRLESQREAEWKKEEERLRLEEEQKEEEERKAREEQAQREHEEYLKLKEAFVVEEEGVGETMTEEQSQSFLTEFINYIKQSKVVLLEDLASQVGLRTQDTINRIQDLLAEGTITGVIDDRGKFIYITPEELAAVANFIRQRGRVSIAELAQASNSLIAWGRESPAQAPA
UniProt Q13561, whole entry, looked up: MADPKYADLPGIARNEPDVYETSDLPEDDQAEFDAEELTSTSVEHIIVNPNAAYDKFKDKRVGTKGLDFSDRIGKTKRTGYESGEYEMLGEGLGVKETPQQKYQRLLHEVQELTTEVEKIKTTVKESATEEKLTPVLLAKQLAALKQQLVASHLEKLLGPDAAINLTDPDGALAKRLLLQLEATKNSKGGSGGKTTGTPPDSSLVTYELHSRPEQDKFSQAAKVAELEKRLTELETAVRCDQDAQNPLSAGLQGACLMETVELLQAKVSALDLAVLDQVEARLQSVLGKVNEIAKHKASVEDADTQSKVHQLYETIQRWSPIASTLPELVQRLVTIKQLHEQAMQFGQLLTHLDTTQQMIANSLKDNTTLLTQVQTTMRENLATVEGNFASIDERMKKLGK
UniProt Q7Z4W1: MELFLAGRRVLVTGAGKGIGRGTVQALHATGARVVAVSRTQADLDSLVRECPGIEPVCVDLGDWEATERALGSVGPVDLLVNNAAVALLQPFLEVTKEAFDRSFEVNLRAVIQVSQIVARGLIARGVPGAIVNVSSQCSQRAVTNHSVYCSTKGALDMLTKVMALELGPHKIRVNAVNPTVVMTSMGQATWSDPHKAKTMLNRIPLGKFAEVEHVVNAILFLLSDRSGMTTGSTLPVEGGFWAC
UniProt Q16531, whole entry, looked up: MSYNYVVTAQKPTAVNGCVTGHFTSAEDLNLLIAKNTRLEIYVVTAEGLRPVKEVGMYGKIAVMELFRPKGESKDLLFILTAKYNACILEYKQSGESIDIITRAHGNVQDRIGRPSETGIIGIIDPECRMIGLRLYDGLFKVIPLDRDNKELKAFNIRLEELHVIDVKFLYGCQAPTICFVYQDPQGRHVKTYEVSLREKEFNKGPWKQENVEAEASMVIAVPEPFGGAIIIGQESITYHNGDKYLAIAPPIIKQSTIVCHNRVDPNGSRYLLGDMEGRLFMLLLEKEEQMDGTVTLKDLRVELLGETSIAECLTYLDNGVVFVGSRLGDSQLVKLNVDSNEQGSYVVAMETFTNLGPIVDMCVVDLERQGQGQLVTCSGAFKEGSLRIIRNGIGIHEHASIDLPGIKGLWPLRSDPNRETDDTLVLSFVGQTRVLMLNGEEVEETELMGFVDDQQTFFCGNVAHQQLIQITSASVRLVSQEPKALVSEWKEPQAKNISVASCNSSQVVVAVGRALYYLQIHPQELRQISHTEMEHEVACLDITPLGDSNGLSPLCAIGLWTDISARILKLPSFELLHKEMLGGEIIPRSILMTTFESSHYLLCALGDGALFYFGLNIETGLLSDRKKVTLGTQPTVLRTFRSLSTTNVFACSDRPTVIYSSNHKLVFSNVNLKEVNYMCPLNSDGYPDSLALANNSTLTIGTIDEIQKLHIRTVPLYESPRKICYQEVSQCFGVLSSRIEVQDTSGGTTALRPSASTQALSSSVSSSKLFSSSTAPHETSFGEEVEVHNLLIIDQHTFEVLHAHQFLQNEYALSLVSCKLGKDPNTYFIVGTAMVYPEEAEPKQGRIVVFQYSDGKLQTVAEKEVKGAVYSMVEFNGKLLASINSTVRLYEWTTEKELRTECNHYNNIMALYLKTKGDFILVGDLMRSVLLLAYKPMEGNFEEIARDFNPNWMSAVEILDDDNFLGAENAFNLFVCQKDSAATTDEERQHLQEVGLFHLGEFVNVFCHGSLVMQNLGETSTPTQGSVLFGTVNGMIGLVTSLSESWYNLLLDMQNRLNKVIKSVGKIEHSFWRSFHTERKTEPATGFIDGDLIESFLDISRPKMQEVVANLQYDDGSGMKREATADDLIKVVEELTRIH
UniProt O00273: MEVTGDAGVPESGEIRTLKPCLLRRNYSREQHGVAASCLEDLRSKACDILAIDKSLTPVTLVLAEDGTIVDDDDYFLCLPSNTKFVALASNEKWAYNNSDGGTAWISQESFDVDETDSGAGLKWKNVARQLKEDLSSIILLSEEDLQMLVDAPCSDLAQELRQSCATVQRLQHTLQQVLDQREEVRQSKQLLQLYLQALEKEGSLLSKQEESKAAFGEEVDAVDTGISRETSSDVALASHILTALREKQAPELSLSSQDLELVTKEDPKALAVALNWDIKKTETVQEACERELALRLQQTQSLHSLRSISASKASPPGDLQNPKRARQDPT
UniProt Q9H1C7: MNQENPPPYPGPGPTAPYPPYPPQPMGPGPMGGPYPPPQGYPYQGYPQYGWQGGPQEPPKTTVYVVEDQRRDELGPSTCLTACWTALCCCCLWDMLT
UniProt P35659: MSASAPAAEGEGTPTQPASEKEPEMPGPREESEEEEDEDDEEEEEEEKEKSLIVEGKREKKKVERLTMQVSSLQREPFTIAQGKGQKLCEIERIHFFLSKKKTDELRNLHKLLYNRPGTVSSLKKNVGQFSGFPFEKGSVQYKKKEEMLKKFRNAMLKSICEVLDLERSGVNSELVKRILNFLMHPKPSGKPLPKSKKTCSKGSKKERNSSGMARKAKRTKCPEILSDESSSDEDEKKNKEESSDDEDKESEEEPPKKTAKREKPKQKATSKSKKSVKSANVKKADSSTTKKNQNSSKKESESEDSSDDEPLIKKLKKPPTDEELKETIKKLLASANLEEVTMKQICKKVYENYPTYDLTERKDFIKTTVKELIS
UniProt P32321: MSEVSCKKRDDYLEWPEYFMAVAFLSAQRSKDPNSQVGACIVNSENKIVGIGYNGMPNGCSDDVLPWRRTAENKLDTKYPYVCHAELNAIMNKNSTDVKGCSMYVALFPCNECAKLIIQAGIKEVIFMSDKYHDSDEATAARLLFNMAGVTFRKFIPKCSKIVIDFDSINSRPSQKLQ
UniProt Q07973: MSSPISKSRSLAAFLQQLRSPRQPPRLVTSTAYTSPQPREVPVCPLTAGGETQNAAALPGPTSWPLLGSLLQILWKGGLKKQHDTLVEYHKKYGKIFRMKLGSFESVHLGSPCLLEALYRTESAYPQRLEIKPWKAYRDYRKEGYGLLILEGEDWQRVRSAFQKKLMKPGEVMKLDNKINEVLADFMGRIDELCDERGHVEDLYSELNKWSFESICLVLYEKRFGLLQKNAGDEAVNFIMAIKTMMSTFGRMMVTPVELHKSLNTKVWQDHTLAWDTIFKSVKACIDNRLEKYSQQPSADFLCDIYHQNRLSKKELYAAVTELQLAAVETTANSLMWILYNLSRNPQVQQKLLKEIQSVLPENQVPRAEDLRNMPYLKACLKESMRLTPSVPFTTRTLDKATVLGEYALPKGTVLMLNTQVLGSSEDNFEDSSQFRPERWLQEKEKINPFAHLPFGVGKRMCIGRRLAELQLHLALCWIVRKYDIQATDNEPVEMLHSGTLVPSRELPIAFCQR
UniProt P61803: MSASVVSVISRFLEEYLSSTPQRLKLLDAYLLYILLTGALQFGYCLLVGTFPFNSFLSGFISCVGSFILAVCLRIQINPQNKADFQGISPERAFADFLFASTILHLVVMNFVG
UniProt Q9NY93: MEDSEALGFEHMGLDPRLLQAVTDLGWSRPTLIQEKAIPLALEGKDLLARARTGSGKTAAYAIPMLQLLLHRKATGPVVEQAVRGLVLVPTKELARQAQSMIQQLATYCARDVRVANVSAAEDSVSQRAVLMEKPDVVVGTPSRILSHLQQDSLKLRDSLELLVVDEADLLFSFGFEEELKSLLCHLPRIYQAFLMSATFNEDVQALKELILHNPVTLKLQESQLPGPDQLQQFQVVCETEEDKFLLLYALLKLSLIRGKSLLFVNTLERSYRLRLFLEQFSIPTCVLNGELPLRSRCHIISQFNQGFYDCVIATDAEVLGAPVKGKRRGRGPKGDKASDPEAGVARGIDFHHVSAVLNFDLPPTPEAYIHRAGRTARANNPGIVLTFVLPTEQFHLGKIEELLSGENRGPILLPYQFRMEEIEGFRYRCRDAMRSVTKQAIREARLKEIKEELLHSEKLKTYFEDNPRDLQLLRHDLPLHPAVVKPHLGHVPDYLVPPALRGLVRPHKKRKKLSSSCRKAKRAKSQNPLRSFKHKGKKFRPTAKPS
UniProt P14868: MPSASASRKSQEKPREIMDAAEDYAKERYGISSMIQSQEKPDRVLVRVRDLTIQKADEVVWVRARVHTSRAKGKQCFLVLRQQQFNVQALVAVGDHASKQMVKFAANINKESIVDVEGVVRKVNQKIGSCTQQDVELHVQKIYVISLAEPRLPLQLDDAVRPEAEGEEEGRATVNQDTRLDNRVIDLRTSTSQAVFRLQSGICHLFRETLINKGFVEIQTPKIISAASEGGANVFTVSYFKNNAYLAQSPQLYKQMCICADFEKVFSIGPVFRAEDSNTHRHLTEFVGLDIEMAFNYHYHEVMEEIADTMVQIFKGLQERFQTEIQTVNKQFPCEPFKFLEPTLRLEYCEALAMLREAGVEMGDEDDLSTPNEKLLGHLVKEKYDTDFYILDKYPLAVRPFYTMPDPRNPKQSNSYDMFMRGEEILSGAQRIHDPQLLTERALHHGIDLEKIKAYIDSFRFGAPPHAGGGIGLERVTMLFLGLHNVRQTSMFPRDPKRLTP
UniProt Q16643: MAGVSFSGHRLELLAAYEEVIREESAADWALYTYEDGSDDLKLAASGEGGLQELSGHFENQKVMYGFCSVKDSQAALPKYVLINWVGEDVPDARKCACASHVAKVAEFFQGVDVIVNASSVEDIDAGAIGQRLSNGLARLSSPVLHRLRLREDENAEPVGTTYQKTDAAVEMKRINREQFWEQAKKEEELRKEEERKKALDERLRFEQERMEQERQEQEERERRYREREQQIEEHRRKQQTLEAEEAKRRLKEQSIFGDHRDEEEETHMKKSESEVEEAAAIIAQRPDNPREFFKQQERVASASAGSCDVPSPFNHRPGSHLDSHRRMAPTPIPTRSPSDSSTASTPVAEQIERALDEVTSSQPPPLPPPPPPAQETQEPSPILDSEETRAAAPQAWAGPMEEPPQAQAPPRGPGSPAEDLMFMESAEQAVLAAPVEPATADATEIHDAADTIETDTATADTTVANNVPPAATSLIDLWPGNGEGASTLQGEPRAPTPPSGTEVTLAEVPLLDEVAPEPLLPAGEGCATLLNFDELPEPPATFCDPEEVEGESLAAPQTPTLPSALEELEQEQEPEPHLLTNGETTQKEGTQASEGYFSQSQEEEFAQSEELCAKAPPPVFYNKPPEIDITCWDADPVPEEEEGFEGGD
UniProt Q13206, whole entry, looked up: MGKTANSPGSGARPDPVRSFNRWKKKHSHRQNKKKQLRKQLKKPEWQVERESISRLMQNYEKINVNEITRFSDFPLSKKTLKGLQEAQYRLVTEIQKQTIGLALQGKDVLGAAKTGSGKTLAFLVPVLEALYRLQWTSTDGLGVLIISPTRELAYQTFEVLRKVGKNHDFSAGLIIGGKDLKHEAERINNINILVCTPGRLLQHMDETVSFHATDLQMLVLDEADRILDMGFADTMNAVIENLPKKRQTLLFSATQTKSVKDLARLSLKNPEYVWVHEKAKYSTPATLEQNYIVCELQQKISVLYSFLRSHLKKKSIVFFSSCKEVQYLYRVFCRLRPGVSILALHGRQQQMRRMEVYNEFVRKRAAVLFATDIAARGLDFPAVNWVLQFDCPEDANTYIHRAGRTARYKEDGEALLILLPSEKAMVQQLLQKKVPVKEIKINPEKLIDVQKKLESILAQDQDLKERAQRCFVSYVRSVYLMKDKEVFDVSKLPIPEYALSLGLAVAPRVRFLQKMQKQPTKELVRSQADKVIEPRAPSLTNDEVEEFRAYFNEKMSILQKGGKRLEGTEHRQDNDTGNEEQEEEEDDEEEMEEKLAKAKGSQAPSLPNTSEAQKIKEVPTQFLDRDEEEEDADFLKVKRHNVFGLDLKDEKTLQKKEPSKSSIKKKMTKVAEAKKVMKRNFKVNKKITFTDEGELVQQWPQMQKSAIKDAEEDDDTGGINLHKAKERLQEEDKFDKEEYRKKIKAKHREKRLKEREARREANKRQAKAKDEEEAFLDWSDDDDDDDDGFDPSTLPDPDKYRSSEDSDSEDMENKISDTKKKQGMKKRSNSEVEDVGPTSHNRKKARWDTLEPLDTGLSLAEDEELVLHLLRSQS
UniProt Q92564: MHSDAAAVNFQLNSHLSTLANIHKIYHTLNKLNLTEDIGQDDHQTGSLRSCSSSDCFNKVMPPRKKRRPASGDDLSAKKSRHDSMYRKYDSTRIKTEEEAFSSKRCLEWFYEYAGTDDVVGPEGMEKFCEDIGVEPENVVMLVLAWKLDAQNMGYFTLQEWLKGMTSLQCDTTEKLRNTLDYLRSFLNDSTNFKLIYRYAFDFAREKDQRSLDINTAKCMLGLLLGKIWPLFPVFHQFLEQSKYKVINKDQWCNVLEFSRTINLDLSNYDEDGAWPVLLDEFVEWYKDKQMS

log2 fold change, inactive:
DDRGK1 (UniProt Q96HY6) -0.002
DCTN1 (UniProt Q14203) 0.001
DCTN2 (UniProt Q13561) -0.153
DDX21 (UniProt Q9NR30) 0.015
DCXR (UniProt Q7Z4W1) -0.004
DDX20 (UniProt Q9UHI6) 0.008
DEF6 (UniProt Q9H4E7) 0.013
DCTN3 (UniProt O75935) -0.025
DENND4C (UniProt Q5VZ89) -0.001
DDB1 (UniProt Q16531) 0.003
DFFA (UniProt O00273) -0.023
DCP2 (UniProt Q8IU60) -0.011
DDX54 isoform 2 (UniProt Q8TDD1) 0.025
CYSTM1 (UniProt Q9H1C7) -0.078
DEK (UniProt P35659) -0.009
DCTD isoform 2 (UniProt P32321) -0.018
DDHD1 (UniProt Q8NEL9) -0.045
CYP24A1 (UniProt Q07973) 0.077
D2HGDH (UniProt Q8N465) -0.01
DAD1 (UniProt P61803) 0.164
DERL1 (UniProt Q9BUN8) -0.011
DECR1 (UniProt Q16698) 0.027
DCTPP1 (UniProt Q9H773) 0.088
DDX24 (UniProt Q9GZR7) 0.002
DDX56 (UniProt Q9NY93) -0.006
DARS (UniProt P14868) 0
DBN1 (UniProt Q16643) 0.021
DDX39A (UniProt O00148) 0.004
DCAF15 (UniProt Q66K64) -0.068
DBI isoform 5 (UniProt P07108) 0.076
DDX46 (UniProt Q7L014) -0.046
DDX10 (UniProt Q13206) 0.036
DCUN1D4 isoform 3 (UniProt Q92564) 0.02
DDX27 (UniProt Q96GQ7) -0.011
DENND4A isoform 2 (UniProt Q7Z401) -0.067
DAG1 (UniProt Q14118) 0.021

2 entries drawn at random from the list so far:
log2 fold change, inactive:
DCAF15 (UniProt Q66K64) -0.068
DARS (UniProt P14868) 0

— the supplement of paper PMC10849652
